Measured values as given in US4062816A, “D-Ala^5 -somatostatin and intermediates thereto” (Eli Lilly and Company, priority 1976, dated 1977).
Not every detail of the peptide structures is certain; ends, links or a residue may be inferred.

Tests used:
growth hormone = experiment: inhibition of the release of growth hormone in pentobarbital-stimulated rats; format: in vivo, Spraque-Dawley rats; settings: 50 μg./rat, subcutaneously; sodium pentobarbital-stimulated; relative to saline control group
Description: The product from Example 4 was tested for its activity in inhibiting the release of growth hormone. The procedure which was employed is carried out using mature male Spraque-Dawley rats (Laboratory Supply Company, Indianapolis, Ind.). The test is a modification of the method of P. Brazeau, W. Vale, and R. Guillemen, Endocrinology, 94 184 (1974). In this assay, three groups of eight rats each were employed. First, sodium pentobarbital was administered to all […] rats to stimulate growth hormone secretion. One of the groups of eight rats is the control group and received only saline. A second of the groups received somatostatin at 50 μg./rat, subcutaneously. The third group received D-Ala^5 -somatostatin at 50 μg./rat, subcutaneously. The degree of inhibition of serum growth hormone concentration then was determined with respect to the control group, and the relative activities of D-Ala^5 -somatostatin and somatostatin itself were compared. At a dose level of 50 μg./rat, D-Ala^5 -somatostatin inhibited the increase in serum growth hormone concentration by 40-50 percent, while somatostatin itself produced a 90 percent inhibition.

insulin = experiment: inhibition of insulin secretion in dogs during L-alanine infusion; format: in vivo, mongrel dogs; settings: intravenous infusion 0.20-0.30 μg/kg/minute (D-Ala5-somatostatin 0.230 μg/kg/min.); fasted dogs
Description: The product from Example 4 also was tested for its activity in inhibiting glucagon and insulin secretion. Normal mongrel dogs of either sex were fasted overnight. Control blood samples were obtained, and then an intravenous infusion of saline, somatostatin, or D-Ala^5 -somatostatinwas started. After 30 minutes, L-alanine additionally was administered intravenously for a period of 15 minutes. The infusion of saline, somatostatin, of D-Ala^5 -somatostatin was continued for 15 minutes after completion of the alanine infusion. The total dose of somatostatin or D-Ala^5 -somatostatin which was infused is 200-500 μg/dog (0.20-0.30 μg/kg/ minute), and the total dose of L-alanine infused was 1 mmol.kg./15 minutes.

growth hormone (GH) = settings: Science, 179, 77 (1973); cited from earlier work

C[C@H](N)C(=O)NCC(=O)N[C@H]1CSSC[C@@H](C(=O)O)NC(=O)[C@H](CO)NC(=O)[C@H]([C@@H](C)O)NC(=O)[C@H](Cc2ccccc2)NC(=O)[C@H]([C@@H](C)O)NC(=O)[C@H](CCCCN)NC(=O)[C@H](Cc2c[nH]c3ccccc23)NC(=O)[C@H](Cc2ccccc2)NC(=O)[C@H](Cc2ccccc2)NC(=O)[C@H](CC(N)=O)NC(=O)[C@H](CCCCN)NC1=O [somatostatin, Somatostatin]
inhibition of the increase in serum growth hormone concentration (growth hormone): 90%
effect on basal serum insulin concentration (before alanine infusion) (insulin): caused a decrease in basal serum insulin concentration
effect on the increase in insulin concentration/secretion produced by L-alanine (insulin): inhibited the rise in concentration of both glucagon and insulin
activity in inhibiting the secretion of growth hormone (GH) (growth hormone (GH)): active
